Laboratory results as given in doi:10.1101/2025.10.30.685566.
No constants are given. Whether binding was seen depends on the method and setting. In cells and extracts the contact can be indirect. These calls come from enrichment with a bait or labelling near it, and not all partners need be listed. Values belong to the molecule of their own block, whether it stands above or below them.

By UniProt entry, the sequences of proteins in these tests, tags left out.
UniProt Q9NQC7: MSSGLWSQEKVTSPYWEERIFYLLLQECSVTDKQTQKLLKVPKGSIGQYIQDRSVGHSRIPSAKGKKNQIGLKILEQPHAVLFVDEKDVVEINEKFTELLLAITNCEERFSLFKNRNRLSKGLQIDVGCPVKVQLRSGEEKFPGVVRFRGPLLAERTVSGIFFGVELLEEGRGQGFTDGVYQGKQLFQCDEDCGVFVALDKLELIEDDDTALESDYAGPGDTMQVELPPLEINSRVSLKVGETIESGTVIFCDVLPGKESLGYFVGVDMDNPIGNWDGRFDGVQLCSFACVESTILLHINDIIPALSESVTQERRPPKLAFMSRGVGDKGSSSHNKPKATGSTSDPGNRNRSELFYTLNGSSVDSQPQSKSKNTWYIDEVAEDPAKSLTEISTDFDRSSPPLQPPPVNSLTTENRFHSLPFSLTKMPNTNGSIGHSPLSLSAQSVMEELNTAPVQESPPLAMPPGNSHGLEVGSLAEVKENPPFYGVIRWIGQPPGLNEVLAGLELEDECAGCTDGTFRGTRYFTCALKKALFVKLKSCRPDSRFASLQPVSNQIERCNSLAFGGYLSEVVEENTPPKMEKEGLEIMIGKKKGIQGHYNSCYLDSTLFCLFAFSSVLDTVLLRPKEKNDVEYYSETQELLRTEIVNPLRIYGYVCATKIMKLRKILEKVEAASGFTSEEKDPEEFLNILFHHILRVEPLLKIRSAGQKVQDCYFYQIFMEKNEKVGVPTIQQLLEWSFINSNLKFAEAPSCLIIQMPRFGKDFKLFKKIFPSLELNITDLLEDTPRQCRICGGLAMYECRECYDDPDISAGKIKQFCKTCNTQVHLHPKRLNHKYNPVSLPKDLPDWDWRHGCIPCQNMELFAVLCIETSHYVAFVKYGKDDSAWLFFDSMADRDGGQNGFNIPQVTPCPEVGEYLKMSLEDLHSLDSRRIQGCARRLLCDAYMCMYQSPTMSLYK
UniProt Q5T5P2: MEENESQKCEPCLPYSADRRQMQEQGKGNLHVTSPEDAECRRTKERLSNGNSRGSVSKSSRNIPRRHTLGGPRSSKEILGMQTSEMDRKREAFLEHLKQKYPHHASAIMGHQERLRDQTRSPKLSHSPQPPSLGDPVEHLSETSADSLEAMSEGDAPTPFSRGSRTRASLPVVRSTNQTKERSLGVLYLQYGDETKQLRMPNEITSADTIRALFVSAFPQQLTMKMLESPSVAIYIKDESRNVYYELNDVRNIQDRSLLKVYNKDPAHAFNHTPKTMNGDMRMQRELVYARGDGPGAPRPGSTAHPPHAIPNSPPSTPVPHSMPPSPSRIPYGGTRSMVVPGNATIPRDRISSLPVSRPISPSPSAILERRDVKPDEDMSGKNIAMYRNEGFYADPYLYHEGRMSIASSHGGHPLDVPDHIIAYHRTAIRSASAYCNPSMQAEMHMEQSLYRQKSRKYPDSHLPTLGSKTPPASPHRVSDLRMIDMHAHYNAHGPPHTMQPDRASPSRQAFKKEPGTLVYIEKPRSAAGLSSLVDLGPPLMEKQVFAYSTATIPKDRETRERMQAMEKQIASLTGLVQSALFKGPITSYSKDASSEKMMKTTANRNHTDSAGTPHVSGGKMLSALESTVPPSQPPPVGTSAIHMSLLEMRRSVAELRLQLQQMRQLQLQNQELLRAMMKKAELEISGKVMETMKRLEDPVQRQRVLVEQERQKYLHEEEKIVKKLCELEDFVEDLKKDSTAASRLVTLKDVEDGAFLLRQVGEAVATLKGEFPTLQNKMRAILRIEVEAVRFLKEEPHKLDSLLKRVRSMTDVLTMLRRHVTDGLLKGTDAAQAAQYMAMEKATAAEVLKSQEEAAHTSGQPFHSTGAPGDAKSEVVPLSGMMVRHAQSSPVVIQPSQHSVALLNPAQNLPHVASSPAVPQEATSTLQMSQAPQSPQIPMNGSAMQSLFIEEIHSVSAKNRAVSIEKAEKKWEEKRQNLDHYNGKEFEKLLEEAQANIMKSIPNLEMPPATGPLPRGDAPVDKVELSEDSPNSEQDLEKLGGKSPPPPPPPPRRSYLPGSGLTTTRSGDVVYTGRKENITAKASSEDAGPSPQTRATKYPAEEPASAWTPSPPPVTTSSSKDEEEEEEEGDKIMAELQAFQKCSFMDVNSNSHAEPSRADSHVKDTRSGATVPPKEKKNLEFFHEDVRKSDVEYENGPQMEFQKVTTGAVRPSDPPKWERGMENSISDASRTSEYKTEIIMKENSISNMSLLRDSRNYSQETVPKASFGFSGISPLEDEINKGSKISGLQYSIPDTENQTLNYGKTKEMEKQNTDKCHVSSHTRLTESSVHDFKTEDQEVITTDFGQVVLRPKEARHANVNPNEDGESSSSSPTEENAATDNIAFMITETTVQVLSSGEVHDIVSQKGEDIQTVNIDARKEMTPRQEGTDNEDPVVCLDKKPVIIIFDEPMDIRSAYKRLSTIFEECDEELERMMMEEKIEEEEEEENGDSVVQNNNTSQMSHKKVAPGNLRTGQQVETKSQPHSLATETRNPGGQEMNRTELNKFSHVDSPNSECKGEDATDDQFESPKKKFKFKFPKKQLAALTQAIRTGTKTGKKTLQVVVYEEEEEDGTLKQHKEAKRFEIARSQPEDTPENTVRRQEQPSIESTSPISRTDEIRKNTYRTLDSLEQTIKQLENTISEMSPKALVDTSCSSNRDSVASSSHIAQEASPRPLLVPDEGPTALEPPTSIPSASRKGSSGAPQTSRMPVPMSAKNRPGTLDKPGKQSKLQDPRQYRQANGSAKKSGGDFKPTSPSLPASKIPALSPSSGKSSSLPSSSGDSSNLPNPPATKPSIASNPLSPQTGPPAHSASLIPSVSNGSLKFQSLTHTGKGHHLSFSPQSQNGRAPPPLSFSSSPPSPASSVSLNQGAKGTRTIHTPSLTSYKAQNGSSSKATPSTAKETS
UniProt Q8TEP8: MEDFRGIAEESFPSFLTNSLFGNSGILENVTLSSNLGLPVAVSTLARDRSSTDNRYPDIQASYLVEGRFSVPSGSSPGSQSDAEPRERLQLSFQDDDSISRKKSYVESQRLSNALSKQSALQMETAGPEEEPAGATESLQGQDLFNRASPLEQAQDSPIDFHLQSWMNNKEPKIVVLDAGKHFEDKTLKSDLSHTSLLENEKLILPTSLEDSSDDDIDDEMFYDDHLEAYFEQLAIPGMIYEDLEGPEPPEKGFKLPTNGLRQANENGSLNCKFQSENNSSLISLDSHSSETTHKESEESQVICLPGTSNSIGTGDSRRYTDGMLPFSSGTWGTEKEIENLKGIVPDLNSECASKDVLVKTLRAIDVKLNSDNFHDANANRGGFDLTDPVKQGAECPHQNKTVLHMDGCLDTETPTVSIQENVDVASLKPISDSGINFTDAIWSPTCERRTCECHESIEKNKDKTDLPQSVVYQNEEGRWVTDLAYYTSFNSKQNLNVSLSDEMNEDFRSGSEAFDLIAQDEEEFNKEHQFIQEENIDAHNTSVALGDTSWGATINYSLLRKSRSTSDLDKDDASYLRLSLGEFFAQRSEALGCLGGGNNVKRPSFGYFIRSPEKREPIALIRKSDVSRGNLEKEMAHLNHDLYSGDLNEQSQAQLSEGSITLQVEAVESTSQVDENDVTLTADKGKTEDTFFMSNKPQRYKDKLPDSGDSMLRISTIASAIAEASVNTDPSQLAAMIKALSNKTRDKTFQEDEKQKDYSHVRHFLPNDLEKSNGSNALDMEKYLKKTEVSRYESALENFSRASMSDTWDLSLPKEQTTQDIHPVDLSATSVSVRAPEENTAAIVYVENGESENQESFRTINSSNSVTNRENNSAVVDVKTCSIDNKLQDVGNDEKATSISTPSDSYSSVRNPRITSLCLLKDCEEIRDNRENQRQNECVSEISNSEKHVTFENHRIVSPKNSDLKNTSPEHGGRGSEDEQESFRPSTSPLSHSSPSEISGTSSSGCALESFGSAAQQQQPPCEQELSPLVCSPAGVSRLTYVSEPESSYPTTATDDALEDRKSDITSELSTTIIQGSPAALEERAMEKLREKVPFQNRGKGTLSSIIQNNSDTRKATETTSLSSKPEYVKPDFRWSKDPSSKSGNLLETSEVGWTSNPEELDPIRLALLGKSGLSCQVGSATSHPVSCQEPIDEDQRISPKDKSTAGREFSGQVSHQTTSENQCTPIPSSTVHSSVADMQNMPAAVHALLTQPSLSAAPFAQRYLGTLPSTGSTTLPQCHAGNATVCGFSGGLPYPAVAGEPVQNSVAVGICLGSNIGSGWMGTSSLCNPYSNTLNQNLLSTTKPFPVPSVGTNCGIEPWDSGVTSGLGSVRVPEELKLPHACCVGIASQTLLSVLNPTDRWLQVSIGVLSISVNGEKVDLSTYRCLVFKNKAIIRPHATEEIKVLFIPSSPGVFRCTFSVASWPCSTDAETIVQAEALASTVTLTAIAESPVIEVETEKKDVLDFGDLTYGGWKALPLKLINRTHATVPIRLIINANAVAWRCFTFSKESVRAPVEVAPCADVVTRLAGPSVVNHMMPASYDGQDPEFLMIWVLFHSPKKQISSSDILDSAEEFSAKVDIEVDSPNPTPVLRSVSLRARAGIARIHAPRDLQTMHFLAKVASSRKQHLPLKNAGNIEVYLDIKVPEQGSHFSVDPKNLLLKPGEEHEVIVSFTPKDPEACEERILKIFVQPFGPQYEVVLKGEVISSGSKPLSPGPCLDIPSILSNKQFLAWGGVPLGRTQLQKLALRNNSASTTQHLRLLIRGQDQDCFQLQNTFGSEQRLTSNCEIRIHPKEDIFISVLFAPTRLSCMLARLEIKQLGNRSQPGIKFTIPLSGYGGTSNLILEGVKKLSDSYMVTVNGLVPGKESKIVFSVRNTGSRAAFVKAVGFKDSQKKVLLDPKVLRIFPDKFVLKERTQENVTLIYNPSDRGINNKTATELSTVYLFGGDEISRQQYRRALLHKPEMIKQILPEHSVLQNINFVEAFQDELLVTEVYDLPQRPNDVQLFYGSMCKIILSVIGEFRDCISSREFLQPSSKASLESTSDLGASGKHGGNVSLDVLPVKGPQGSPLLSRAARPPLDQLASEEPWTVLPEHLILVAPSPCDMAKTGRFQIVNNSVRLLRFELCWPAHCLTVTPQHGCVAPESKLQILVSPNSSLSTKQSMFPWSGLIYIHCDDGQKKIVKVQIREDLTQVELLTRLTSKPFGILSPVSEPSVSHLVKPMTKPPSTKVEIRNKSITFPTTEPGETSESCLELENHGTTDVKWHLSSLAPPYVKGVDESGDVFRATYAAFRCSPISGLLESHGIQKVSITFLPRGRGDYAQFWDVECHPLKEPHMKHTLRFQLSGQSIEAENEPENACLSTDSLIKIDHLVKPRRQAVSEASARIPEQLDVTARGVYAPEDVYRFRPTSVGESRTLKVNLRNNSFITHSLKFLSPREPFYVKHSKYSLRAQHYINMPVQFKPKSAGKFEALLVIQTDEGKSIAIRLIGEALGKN
UniProt Q13114: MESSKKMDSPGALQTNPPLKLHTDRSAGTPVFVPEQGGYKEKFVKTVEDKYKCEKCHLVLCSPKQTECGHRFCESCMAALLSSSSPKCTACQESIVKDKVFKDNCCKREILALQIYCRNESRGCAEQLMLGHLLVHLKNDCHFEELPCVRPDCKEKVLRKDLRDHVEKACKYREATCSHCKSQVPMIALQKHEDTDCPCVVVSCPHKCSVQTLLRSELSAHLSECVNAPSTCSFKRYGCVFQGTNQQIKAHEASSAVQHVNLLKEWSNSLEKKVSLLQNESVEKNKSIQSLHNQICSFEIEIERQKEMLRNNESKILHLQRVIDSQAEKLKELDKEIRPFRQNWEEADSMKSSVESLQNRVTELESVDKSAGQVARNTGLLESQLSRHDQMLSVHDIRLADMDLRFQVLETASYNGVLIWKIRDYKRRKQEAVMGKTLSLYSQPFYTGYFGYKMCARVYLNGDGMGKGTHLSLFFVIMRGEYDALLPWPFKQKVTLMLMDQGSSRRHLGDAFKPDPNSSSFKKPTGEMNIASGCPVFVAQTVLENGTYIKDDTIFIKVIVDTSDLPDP

Biological target: myc-BirA*-CYLD (UniProt Q9NQC7)
Assay: proximity labelling

Molecule: KIAA1217 (endogenous) (from UniProt Q5T5P2 1-1943)
- binding: binds

Molecule: CEP192 (from UniProt Q8TEP8 1-2537)
- binding: binds

B1: SAS6 (protein, UniProt Q6UVJ0 1-657)
chain: MSQVLFHQLVPLQVKCKDCEERRVSIRMSIELQSVSNPVHRKDLVIRLTDDTDPFFLYNLVISEEDFQSLKFQQGLLVDFLAFPQKFIDLLQQCTQEHAKEIPRFLLQLVSPAAILDNSPAFLNVVETNPFKHLTHLSLKLLPGNDVEIKKFLAGCLKCSKEEKLSLMQSLDDATKQLDFTRKTLAEKKQELDKLRNEWASHTAALTNKHSQELTNEKEKALQAQVQYQQQHEQQKKDLEILHQQNIHQLQNRLSELEAANKDLTERKYKGDSTIRELKAKLSGVEEELQRTKQEVLSLRRENSTLDVECHEKEKHVNQLQTKVAVLEQEIKDKDQLVLRTKEAFDTIQEQKVVLEENGEKNQVQLGKLEATIKSLSAELLKANEIIKKLQGDLKTLMGKLKLKNTVTIQQEKLLAEKEEKLQKEQKELQDVGQSLRIKEQEVCKLQEQLEATVKKLEESKQLLKNNEKLITWLNKELNENQLVRKQDVLGPSTTPPAHSSSNTIRSGISPNLNVVDGRLTYPTCGIGYPVSSAFAFQNTFPHSISAKNTSHPGSGTKVQFNLQFTKPNASLGDVQSGATISMPCSTDKENGENVGLESKYLKKREDSIPLRGLSQNLFSNSDHQRDGTLGALHTSSKPTALPSASSAYFPGQLPNS
- binding: binds

B2: HAUS3 (protein, UniProt Q68CZ6 1-603)
chain: MSCGNEFVETLKKIGYPKADNLNGEDFDWLFEGVEDESFLKWFCGNVNEQNVLSERELEAFSILQKSGKPILEGAALDEALKTCKTSDLKTPRLDDKELEKLEDEVQTLLKLKNLKIQRRNKCQLMASVTSHKSLRLNAKEEEATKKLKQSQGILNAMITKISNELQALTDEVTQLMMFFRHSNLGQGTNPLVFLSQFSLEKYLSQEEQSTAALTLYTKKQFFQGIHEVVESSNEDNFQLLDIQTPSICDNQEILEERRLEMARLQLAYICAQHQLIHLKASNSSMKSSIKWAEESLHSLTSKAVDKENLDAKISSLTSEIMKLEKEVTQIKDRSLPAVVRENAQLLNMPVVKGDFDLQIAKQDYYTARQELVLNQLIKQKASFELLQLSYEIELRKHRDIYRQLENLVQELSQSNMMLYKQLEMLTDPSVSQQINPRNTIDTKDYSTHRLYQVLEGENKKKELFLTHGNLEEVAEKLKQNISLVQDQLAVSAQEHSFFLSKRNKDVDMLCDTLYQGGNQLLLSDQELTEQFHKVESQLNKLNHLLTDILADVKTKRKTLANNKLHQMEREFYVYFLKDEDYLKDIVENLETQSKIKAVSLED
- binding: binds

Next, values leading:

- binding: binds
Molecule: TRAF3 (from UniProt Q13114 1-568)

- binding: binds
B3: SPATA2 (protein, UniProt Q9UM82 1-520)
chain: MGKPSSMDTKFKDDLFRKYVQFHESKVDTTTSRQRPGSDECLRVAASTLLSLHKVDPFYRFRLIQFYEVVESSLRSLSSSSLRALHGAFSMLETVGINLFLYPWKKEFRSIKTYTGPFVYYVKSTLLEEDIRAILSCMGYTPELGTAYKLRELVETLQVKMVSFELFLAKVECEQMLEIHSQVKDKGYSELDIVSERKSSAEDVRGCSDALRRRAEGREHLTASMSRVALQKSASERAAKDYYKPRVTKPSRSVDAYDSYWESRKPPLKASLSLRKEPVATDVGDDLKDEIIRPSPSLLTMASSPHGSPDVLPPASPSNGPALLRGTYFSTQDDVDLYTDSEPRATYRRQDALRPDVWLLRNDAHSLYHKRSPPAKESALSKCQSCGLSCSSSLCQRCDSLLTCPPASKPSAFPSKASTHDSLAHGASLREKYPGQTQGLDRLPHLHSKSKPSTTPTSRCGFCNRPGATNTCTQCSKVSCDACLSAYHYDPCYKKSELHKFMPNNQLNYKSTQLSHLVYR

- binding: binds
B4: SPATA2L (protein, UniProt Q8IUW3 1-424)
chain: MGSSSLSEDYRQCLERELRRGRAGVCGDPSLRAVLWQILVEDFDLHGALQDDALALLTDGLWGRADLAPALRGLARAFELLELAAVHLYLLPWRKEFTTIKTFSGGYVHVLKGVLSDDLLLKSFQKMGYVRRDSHRLMVTALPPACQLVQVALGCFALRLECEILGEVLAQLGTSVLPAEELLQARRASGDVASCVAWLQQRLAQDEEPPPLPPRGSPAAYRAPLDLYRDLQEDEGSEDASLYGEPSPGPDSPPAELAYRPPLWEQSAKLWGTGGRAWEPPAEELPQASSPPYGALEEGLEPEPSAFSFLSLRRELSRPGDLATPESSAAASPRRIRAEGVPASAYRSVSEPPGYQAHSCLSPGALPTLCCDTCRQLHAAHCAALPACRPGHSLRVLLGDAQRRLWLQRAQMDTLLYNSPGARP
